Results published in publication PMC7562919.
Results are given in words; binding and its absence hold for the method and conditions named. Binding seen in cells or lysates may run through a third protein. Binding can be weak; no strength is given. For part of these data: Where a sequence is shown, tags or fusion partners need not be part of it. Values belong to the substance of their own block, whether it stands above or below them.

Chains of the proteins cited; added tags and fusions are not shown. Lines headed by an entry give the natural chain unless they say otherwise; changes in a name come on top.
UniProt Q39255: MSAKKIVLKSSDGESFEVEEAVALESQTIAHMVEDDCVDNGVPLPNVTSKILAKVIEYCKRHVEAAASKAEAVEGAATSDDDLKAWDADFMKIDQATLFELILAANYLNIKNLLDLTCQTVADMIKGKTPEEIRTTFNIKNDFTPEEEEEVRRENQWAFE
UniProt P51818: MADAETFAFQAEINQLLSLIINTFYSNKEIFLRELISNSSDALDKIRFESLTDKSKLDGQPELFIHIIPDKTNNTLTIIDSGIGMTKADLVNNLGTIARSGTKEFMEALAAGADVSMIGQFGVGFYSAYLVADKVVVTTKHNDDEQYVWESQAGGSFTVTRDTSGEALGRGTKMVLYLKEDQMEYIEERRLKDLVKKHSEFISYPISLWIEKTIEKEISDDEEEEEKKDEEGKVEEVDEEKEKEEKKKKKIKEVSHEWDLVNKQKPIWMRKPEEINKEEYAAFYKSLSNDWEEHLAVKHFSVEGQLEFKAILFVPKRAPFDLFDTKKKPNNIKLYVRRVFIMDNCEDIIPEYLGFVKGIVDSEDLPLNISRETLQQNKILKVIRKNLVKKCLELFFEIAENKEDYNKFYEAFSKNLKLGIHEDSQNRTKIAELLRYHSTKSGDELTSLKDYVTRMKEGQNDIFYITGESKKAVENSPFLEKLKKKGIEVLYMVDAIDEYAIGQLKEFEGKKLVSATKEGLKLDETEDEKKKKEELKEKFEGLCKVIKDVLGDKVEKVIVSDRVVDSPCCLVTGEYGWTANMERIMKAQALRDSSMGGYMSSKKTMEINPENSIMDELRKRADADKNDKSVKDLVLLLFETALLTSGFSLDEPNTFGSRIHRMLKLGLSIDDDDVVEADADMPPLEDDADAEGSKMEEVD
UniProt Q4PT31: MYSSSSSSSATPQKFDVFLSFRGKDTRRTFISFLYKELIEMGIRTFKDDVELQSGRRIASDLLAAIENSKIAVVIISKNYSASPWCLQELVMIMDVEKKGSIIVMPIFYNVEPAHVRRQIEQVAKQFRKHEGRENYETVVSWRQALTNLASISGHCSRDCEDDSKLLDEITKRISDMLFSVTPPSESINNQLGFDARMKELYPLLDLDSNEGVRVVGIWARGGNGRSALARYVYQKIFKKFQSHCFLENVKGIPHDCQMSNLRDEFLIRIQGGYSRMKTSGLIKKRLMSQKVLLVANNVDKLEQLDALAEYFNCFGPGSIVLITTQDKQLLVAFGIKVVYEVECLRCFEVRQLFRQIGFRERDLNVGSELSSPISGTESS

What was measured:
[1] = molecular target: ASK1-FLAGTEVZZ (Arabidopsis thaliana) (UniProt Q39255); assay: co-IP; FLAGTEVZZ-tagged bait co-expressed with a FLAG-tagged partner in N. benthamiana leaves, 48 h; how the bait was precipitated is not told
[2] = molecular target: HA-FLAG-SOC3 (Arabidopsis thaliana) (UniProt F4I901); assay: co-IP; proteins transiently co-expressed in N. benthamiana leaves, harvested after 48 h; GTEN buffer (25 mM Tris-HCl pH 7.5, 150 mM NaCl, 1 mM EDTA, 0.15% NP-40, 10 mM DTT); FLAG-tagged protein precipitated with anti-FLAG M2 beads, 3 h at 4 °C; western blot
[3] = molecular target: T1, SUSA2-FLAG (Arabidopsis thaliana) (UniProt Q9FKT0); assay: co-IP; Arabidopsis stable transgenic lines carrying both transgenes; for CHS1-HA and TN2-HA in Col-0, hsp90.3-1 and sgt1b backgrounds
T1 sequence: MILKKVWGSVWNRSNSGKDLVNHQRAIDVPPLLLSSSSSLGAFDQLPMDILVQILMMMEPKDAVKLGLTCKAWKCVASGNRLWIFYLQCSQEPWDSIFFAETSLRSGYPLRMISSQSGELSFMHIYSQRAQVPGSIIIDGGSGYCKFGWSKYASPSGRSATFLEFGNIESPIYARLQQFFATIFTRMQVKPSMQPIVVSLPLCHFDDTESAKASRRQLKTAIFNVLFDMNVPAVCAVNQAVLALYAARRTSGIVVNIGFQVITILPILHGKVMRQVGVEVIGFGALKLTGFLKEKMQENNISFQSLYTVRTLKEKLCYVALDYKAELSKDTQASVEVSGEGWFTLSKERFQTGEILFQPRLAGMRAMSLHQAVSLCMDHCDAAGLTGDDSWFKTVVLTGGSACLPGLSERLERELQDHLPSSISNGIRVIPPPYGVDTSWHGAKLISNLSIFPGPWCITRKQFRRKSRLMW

binding [1]: binds
Substance: HA-FLAG-SOC3 (from UniProt F4I901)

binding [2]: binds
Substance: HSP90.3-HA (from UniProt P51818 1-699)

binding [3]: binds
Substance: TN2-HA (from UniProt Q4PT31)
